# Results of single-concentration screens

Measurements from “University of Dundee, Small-Polar-MMV Screening Library” (2021), ChEMBL document CHEMBL3988442.

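Assay of Toxoplasma gondii numbers, read through their beta-galactosidase reporter with a colour substrate. Tested at 50 µM. Higher reads as fewer parasites (inferred from which compounds were picked for retests). Of about 18,000 compounds tested this way, about 170 (0.94%) reached 50% or more in at least one test.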

Results are given as percent effect. The record does not define 0% and 100%; most values in the screen are far below 50% and negative numbers occur (in some assays of this library far below -100). This is an unselected part of the compounds tested.

SMILES | percent effect
CC(NCC1CC1)c1nnc2ccccn12 (stereo unspecified) | 0.7355
CSc1ccc(CC(=O)N(C)Cc2ccon2)cc1 | 0.2293
O=C(Nc1ccccc1)C1CCN(C(=O)C2CC2)CC1 | 0.916
CNC(=O)NC(=O)CCSc1ccc2ccccc2n1 | -10.9
CC(C)CNS(=O)(=O)c1ccc(CN)cc1 | 6.069
CN(Cc1ccccc1)C(=O)C1CCNCC1 | -26.96
CC(=O)N1CCC(N2CCC3(CC2)[C@H](O)C[C@@H]3O)CC1 | 10.62
CC(CCNC(=O)Nc1ncnn1C)N1CCCCC1 (stereo unspecified) | 16.01
CC(c1ccncc1)N(C)Cc1ccc(CO)o1 (stereo unspecified) | -6.48
CCC1(CO)CCCN1 (stereo unspecified) | 11.23
O=S(=O)(c1cccs1)N(CCO)Cc1cccnc1 | -14.09
COC(=O)C[C@H](N)c1ccc(Cl)cc1 | -5.357
CCCc1ccc(C(=O)N2CCCN(C)CC2)cc1 | 1.31
C=C(C)CN1CCC(NC(=O)NCCS(C)(=O)=O)CC1 | -0.6015
CC(C)(C)C(=O)Nc1cccc(N2CCCC2=O)c1 | 0.349
Cc1noc(C)c1CCC(=O)NCc1ccon1 | 0.2923
Cn1cncc1CN1CC[C@@]2(O)CCCC[C@H]2C1 | 1.028
Cc1cc(CNS(=O)(=O)N(C)C)ccc1F | 5.882
CN1CCN(CC2CCCNC2)CC1 (stereo unspecified) | -5.421
CCC1CCCCN1C(=O)CSc1nnnn1C1CC1 (stereo unspecified) | -15.74
CNc1ccnc(C(N)=O)c1 | 3.5
COc1ccc(C)c(NC(=O)N(C)CCN(C)C)c1 | 27.38
O=C(CCC(F)(F)F)N[C@@H]1c2ccccc2C[C@@H]1O | 3.51
Fc1cccnc1OC1CCCNC1 (stereo unspecified) | 4.207
c1ccc(COCc2nc(C3CCCNC3)no2)cc1 (stereo unspecified) | -2.705
CCOc1ccc(NC(=O)c2ncoc2C)cc1CO | 22.65
OCC(CO)(CO)NCc1ccc(Cl)cc1Cl | 15.94
Cc1cccc(S(=O)(=O)N2CC[C@H](N)C2)c1C#N | -20.63
CCc1cc(=O)[nH]c(C(C)(N)CC)n1 (stereo unspecified) | 20.9
CC1(C)CCNCCS1(=O)=O | 7.436
CC(=O)N(C)C1CCN(CC(=O)N2CCCC2)CC1 | 1.645
CCCNc1nnc(SC2CCOC2)s1 (stereo unspecified) | -4.44
O=c1cccnn1CC(O)COCc1ccccc1F (stereo unspecified) | -16.76
Cc1ccnn1CC(=O)N[C@@H]1CCOC[C@H]1O | 20.3
CN1CCCN(CC(O)COCc2cccs2)CC1 (stereo unspecified) | 0.134
COCCN(C)CCNC(=O)c1ccccc1OC | -5.557
COC(=O)c1sc(N2CCCCC2)nc1N | -0.2941
COC(=O)C1CCN(S(=O)(=O)Cc2ccccc2)CC1 | 2.162
Cc1cc(CNc2cc(C(N)=O)ccc2C)no1 | -19.59
Cc1nn(CCNC(=O)CC2COCCN2)c(C)c1Cl (stereo unspecified) | 10.59
NC(=O)COC(=O)c1cccnc1-n1cncn1 | 15.51
CN(Cc1cc(Br)cs1)C(=O)c1ccn(C)c(=O)c1 | -23.94
O=C1OCCC1Sc1nnc(Nc2ccccc2)s1 (stereo unspecified) | -12.3
CCCc1cc(C(=O)N2CCOC(C(F)(F)F)C2)no1 (stereo unspecified) | -10.86
O=C(NCC1CCCNC1)c1coc2ccccc12 (stereo unspecified) | -8.391
Cc1nc(NC(=O)NCCC(C)O)sc1C (stereo unspecified) | 10.87

3 of the entries, repeated:

{"smiles": "Cc1nn(CCNC(=O)CC2COCCN2)c(C)c1Cl", "stereo": "stereo unspecified", "percent effect": 10.59}
{"smiles": "CC(C)(C)C(=O)Nc1cccc(N2CCCC2=O)c1", "percent effect": 0.349}
{"smiles": "Cc1noc(C)c1CCC(=O)NCc1ccon1", "percent effect": 0.2923}